Source: US12729225B2, “Non-canonical SWI/SNF complex and uses thereof” (Dana-Farber Cancer Institute, Inc., priority 2018, dated 2026)

B1: EPB41L3 (protein, UniProt Q9Y2J2 1-1087, looked up)
Band 4.1-like protein 3: MTTESGSDSESKPDQEAEPQEAAGAQGRAGAPVPEPPKEEQQQALEQFAAAAAHSTPVRREVTDKEQEFAARAAKQLEYQQLEDDKLSQKSSSSKLSRSPLKIVKKPKSMQCKVILLDGSEYTCDVEKRSRGQVLFDKVCEHLNLLEKDYFGLTYRDAENQKNWLDPAKEIKKQVRSGAWHFSFNVKFYPPDPAQLSEDITRYYLCLQLRDDIVSGRLPCSFVTLALLGSYTVQSELGDYDPDECGSDYISEFRFAPNHTKELEDKVIELHKSHRGMTPAEAEMHFLENAKKLSMYGVDLHHAKDSEGVEIMLGVCASGLLIYRDRLRINRFAWPKVLKISYKRNNFYIKIRPGEFEQFESTIGFKLPNHRAAKRLWKVCVEHHTFFRLLLPEAPPKKFLTLGSKFRYSGRTQAQTRRASALIDRPAPYFERSSSKRYTMSRSLDGEVGTGQYATTKGISQTNLITTVTPEKKAEEERDEEEDKRRKGEEVTPISAIRHEGKSPGLGTDSCPLSPPSTHCAPTSPTELRRRCKENDCKLPGYEPSRAEHLPGEPALDSDGPGRPYLGDQDVAFSYRQQTGKGTTLFSFSLQLPESFPSLLDDDGYLSFPNLSETNLLPQSLQHYLPIRSPSLVPCFLFIFFFLLSASFSVPYALTLSFPLALCLCYLEPKAASLSASLDNDPSDSSEEETDSERTDTAADGETTATESDQEEDAELKAQELEKTQDDLMKHQTNISELKRTFLETSTDTAVTNEWEKRLSTSPVRLAARQEDAPMIEPLVPEETKQSSGEKLMDGSEIFSLLESARKPTEFIGGVTSTSQSWVQKMETKTESSGIETEPTVHHLPLSTEKVVQETVLVEERRVVHASGDASYSAGDSGDAAAQPAFTGIKGKEGSALTEGAKEEGGEEVAKAVLEQEETAAASRERQEEQSAAIHISETLEQKPHFESSTVKTETISFGSVSPGGVKLEISTKEVPVVHTETKTITYESSQVDPGTDLEPGVLMSAQTITSETTSTTTTTHITKTVKGGISETRIEKRIVITGDADIDHDQALAQAIKEAKEQHPDMSVTKVVVHKETEITPEDGED
B2: PDHA1 (protein, UniProt P08559 30-390, looked up)
Pyruvate dehydrogenase E1 …: FANDATFEIKKCDLHRLEEGPPVTTVLTREDGLKYYRMMQTVRRMELKADQLYKQKIIRGFCHLCDGQEACCVGLEAGINPTDHLITAYRAHGFTFTRGLSVREILAELTGRKGGCAKGKGGSMHMYAKNFYGGNGIVGAQVPLGAGIALACKYNGKDEVCLTLYGDGAANQGQIFEAYNMAALWKLPCIFICENNRYGMGTSVERAAASTDYYKRGDFIPGLRVDGMDILCVREATRFAAAYCRSGKGPILMELQTYRYHGHSMSDPGVSYRTREEIQEVRSKSDPIMLLKDRMVNSNLASVEELKEIDVEVRKEIEDAAQFATADPEPPLEELGYHIYSSDPPFEVRGANQWIKFKSVS
B3: SND1 (protein, UniProt Q7KZF4 2-910, looked up)
Staphylococcal nuclease …: ASSAQSGGSSGGPAVPTVQRGIIKMVLSGCAIIVRGQPRGGPPPERQINLSNIRAGNLARRAAATQPDAKDTPDEPWAFPAREFLRKKLIGKEVCFTIENKTPQGREYGMIYLGKDTNGENIAESLVAEGLATRREGMRANNPEQNRLSECEEQAKAAKKGMWSEGNGSHTIRDLKYTIENPRHFVDSHHQKPVNAIIEHVRDGSVVRALLLPDYYLVTVMLSGIKCPTFRREADGSETPEPFAAEAKFFTESRLLQRDVQIILESCHNQNILGTILHPNGNITELLLKEGFARCVDWSIAVYTRGAEKLRAAERFAKERRLRIWRDYVAPTANLDQKDKQFVAKVMQVLNADAIVVKLNSGDYKTIHLSSIRPPRLEGENTQDKNKKLRPLYDIPYMFEAREFLRKKLIGKKVNVTVDYIRPASPATETVPAFSERTCATVTIGGINIAEALVSKGLATVIRYRQDDDQRSSHYDELLAAEARAIKNGKGLHSKKEVPIHRVADISGDTQKAKQFLPFLQRAGRSEAVVEYVFSGSRLKLYLPKETCLITFLLAGIECPRGARNLPGLVQEGEPFSEEATLFTKELVLQREVEVEVESMDKAGNFIGWLHIDGANLSVLLVEHALSKVHFTAERSSYYKSLLSAEEAAKQKKEKVWAHYEEQPVEEVMPVLEEKERSASYKPVFVTEITDDLHFYVQDVETGTQLEKLMENMRNDIASHPPVEGSYAPRRGEFCIAKFVDGEWYRARVEKVESPAKIHVFYIDYGNREVLPSTRLGTLSPAFSTRVLPAQATEYAFAFIQVPQDDDARTDAVDSVVRDIQNTQCLLNVEHLSAGCPHVTLQFADSKGDVGLGLVKEGLVMVEVRKEKQFQKVITEYLNAQESAKSARLNLWRYGDFRADDADEFGYSR
B4: DDX31 (protein, UniProt Q9H8H2 1-851, looked up)
ATP-dependent DNA helicase …: MAPDLASQRHSESFPSVNSRPNVILPGREGRREGLPPGGGTRGSLVPTRPVPPSPAPLGTSPYSWSRSGPGRGGGAGSSRVPRGVPGPAVCAPGSLLHHASPTQTMAAADGSLFDNPRTFSRRPPAQASRQAKATKRKYQASSEAPPAKRRNETSFLPAKKTSVKETQRTFKGNAQKMFSPKKHSVSTSDRNQEERQCIKTSSLFKNNPDIPELHRPVVKQVQEKVFTSAAFHELGLHPHLISTINTVLKMSSMTSVQKQSIPVLLEGRDALVRSQTGSGKTLAYCIPVVQSLQAMESKIQRSDGPYALVLVPTRELALQSFDTVQKLLKPFTWIVPGVLMGGEKRKSEKARLRKGINILISTPGRLVDHIKSTKNIHFSRLRWLVFDEADRILDLGFEKDITVILNAVNAECQKRQNVLLSATLTEGVTRLADISLHDPVSISVLDKSHDQLNPKDKAVQEVCPPPAGDKLDSFAIPESLKQHVTVVPSKLRLVCLAAFILQKCKFEEDQKMVVFFSSCELVEFHYSLFLQTLLSSSGAPASGQLPSASMRLKFLRLHGGMEQEERTAVFQEFSHSRRGVLLCTDVAARGLDLPQVTWIVQYNAPSSPAEYIHRIGRTARIGCHGSSLLILAPSEAEYVNSLASHKINVSEIKMEDILCVLTRDDCFKGKRWGAQKSHAVGPQEIRERATVLQTVFEDYVHSSERRVSWAKKALQSFIQAYATYPRELKHIFHVRSLHLGHVAKSFGLRDAPRNLSALTRKKRKAHVKRPDLHKKTQSKHSLAEILRSEYSSGMEADIAKVKKQNAPGEPGGRPLQHSLQPTPCFGRGKTLKWRKTQKGVQRDSKTSQKV
B5: ETFB (protein, UniProt P38117 2-255, looked up)
Electron transfer …: AELRVLVAVKRVIDYAVKIRVKPDRTGVVTDGVKHSMNPFCEIAVEEAVRLKEKKLVKEVIAVSCGPAQCQETIRTALAMGADRGIHVEVPPAEAERLGPLQVARVLAKLAEKEKVDLVLLGKQAIDDDCNQTGQMTAGFLDWPQGTFASQVTLEGDKLKVEREIDGGLETLRLKLPAVVTADLRLNEPRYATLPNIMKAKKKKIEVIKPGDLGVDLTSKLSVISVEDPPQRTAGVKVETTEDLVAKLKEIGRI
B6: THRAP3 (protein, UniProt Q9Y2W1 2-955, looked up)
Thyroid hormone …: SKTNKSKSGSRSSRSRSASRSRSRSFSKSRSRSRSLSRSRKRRLSSRSRSRSYSPAHNRERNHPRVYQNRDFRGHNRGYRRPYYFRGRNRGFYPWGQYNRGGYGNYRSNWQNYRQAYSPRRGRSRSRSPKRRSPSPRSRSHSRNSDKSSSDRSRRSSSSRSSSNHSRVESSKRKSAKEKKSSSKDSRPSQAAGDNQGDEAKEQTFSGGTSQDTKASESSKPWPDATYGTGSASRASAVSELSPRERSPALKSPLQSVVVRRRSPRPSPVPKPSPPLSSTSQMGSTLPSGAGYQSGTHQGQFDHGSGSLSPSKKSPVGKSPPSTGSTYGSSQKEESAASGGAAYTKRYLEEQKTENGKDKEQKQTNTDKEKIKEKGSFSDTGLGDGKMKSDSFAPKTDSEKPFRGSQSPKRYKLRDDFEKKMADFHKEEMDDQDKDKAKGRKESEFDDEPKFMSKVIGANKNQEEEKSGKWEGLVYAPPGKEKQRKTEELEEESFPERSKKEDRGKRSEGGHRGFVPEKNFRVTAYKAVQEKSSSPPPRKTSESRDKLGAKGDFPTGKSSFSITREAQVNVRMDSFDEDLARPSGLLAQERKLCRDLVHSNKKEQEFRSIFQHIQSAQSQRSPSELFAQHIVTIVHHVKEHHFGSSGMTLHERFTKYLKRGTEQEAAKNKKSPEIHRRIDISPSTFRKHGLAHDEMKSPREPGYKAEGKYKDDPVDLRLDIERRKKHKERDLKRGKSRESVDSRDSSHSRERSAEKTEKTHKGSKKQKKHRRARDRSRSSSSSSQSSHSYKAEEYTEETEEREESTTGFDKSRLGTKDFVGPSERGGGRARGTFQFRARGRGWGRGNYSGNNNNNSNNDFQKRNREEEWDPEYTPKSKKYYLHDDREGEGSDKWVSRGRGRGAFPRGRGRFMFRKSSTSPKWAHDKFSGEEGEIEDDESGTENREEKDNIQPTTE
B7: DDX18 (protein, UniProt Q9NVP1 1-670, looked up)
ATP-dependent RNA helicase …: MSHLPMKLLRKKIEKRNLKLRQRNLKFQGASNLTLSETQNGDVSEETMGSRKVKKSKQKPMNVGLSETQNGGMSQEAVGNIKVTKSPQKSTVLTNGEAAMQSSNSESKKKKKKKRKMVNDAEPDTKKAKTENKGKSEEESAETTKETENNVEKPDNDEDESEVPSLPLGLTGAFEDTSFASLCNLVNENTLKAIKEMGFTNMTEIQHKSIRPLLEGRDLLAAAKTGSGKTLAFLIPAVELIVKLRFMPRNGTGVLILSPTRELAMQTFGVLKELMTHHVHTYGLIMGGSNRSAEAQKLGNGINIIVATPGRLLDHMQNTPGFMYKNLQCLVIDEADRILDVGFEEELKQIIKLLPTRRQTMLFSATQTRKVEDLARISLKKEPLYVGVDDDKANATVDGLEQGYVVCPSEKRFLLLFTFLKKNRKKKLMVFFSSCMSVKYHYELLNYIDLPVLAIHGKQKQNKRTTTFFQFCNADSGTLLCTDVAARGLDIPEVDWIVQYDPPDDPKEYIHRVGRTARGLNGRGHALLILRPEELGFLRYLKQSKVPLSEFDFSWSKISDIQSQLEKLIEKNYFLHKSAQEAYKSYIRAYDSHSLKQIFNVNNLNLPQVALSFGFKVPPFVDLNVNSNEGKQKKRGGGGGFGYQKTKKVEKSKIFKHISKKSSDSRQFSH
B8: RTCB (protein, UniProt Q9Y3I0 1-505, looked up)
RNA-splicing ligase RtcB …: MSRSYNDELQFLEKINKNCWRIKKGFVPNMQVEGVFYVNDALEKLMFEELRNACRGGGVGGFLPAMKQIGNVAALPGIVHRSIGLPDVHSGYGFAIGNMAAFDMNDPEAVVSPGGVGFDINCGVRLLRTNLDESDVQPVKEQLAQAMFDHIPVGVGSKGVIPMNAKDLEEALEMGVDWSLREGYAWAEDKEHCEEYGRMLQADPNKVSARAKKRGLPQLGTLGAGNHYAEIQVVDEIFNEYAAKKMGIDHKGQVCVMIHSGSRGLGHQVATDALVAMEKAMKRDKIIVNDRQLACARIASPEGQDYLKGMAAAGNYAWVNRSSMTFLTRQAFAKVFNTTPDDLDLHVIYDVSHNIAKVEQHVVDGKERTLLVHRKGSTRAFPPHHPLIAVDYQLTGQPVLIGGTMGTCSYVLTGTEQGMTETFGTTCHGAGRALSRAKSRRNLDFQDVLDKLADMGIAIRVASPKLVMEEAPESYKNVTDVVNTCHDAGISKKAIKLRPIAVIKG

What follows are molecules tested on mSWI/SNF complexes (assay: mSWI/SNF complex purification with HA-tagged baits and mass spectrometry (peptide counts)). Details: 293_HA-BRD7: HA-BRD7 bait purification, total peptide count per co-purified protein.
Set-up: species or system human

Row | Molecule | Total
1 | B1 | 5
2 | B2 | 5
3 | B3 | 5
4 | B4 | 5
5 | B5 | 5
6 | B6 | 5
7 | B7 | 5
8 | B8 | 5

Same assay, conditions: 293_HA-BRD7: HA-BRD7 bait purification, unique peptide count per co-purified protein

Row | Molecule | Unique
9 | B1 | 5
10 | B2 | 5
11 | B3 | 5
12 | B4 | 5
13 | B5 | 5
14 | B6 | 5
15 | B7 | 5
16 | B8 | 5

Same assay, conditions: 293_HA-BRD7 bait purification, mass spectrometry; total peptides per co-purified protein

Row | Molecule | Total
17 | B1 | 1

Same assay, conditions: 293_HA-BRD7 bait purification, mass spectrometry; unique peptides per co-purified protein

Row | Molecule | Unique
18 | B1 | 1
